The results in this text go back to ChEMBL document CHEMBL4431325, “Design and Synthesis of Orally Bioavailable 4-Methyl Heteroaryldihydropyrimidine Based Hepatitis B Virus (HBV) Capsid Inhibitors” (J Med Chem, 2016).

The data set in a line: physchem. The conditions noted are these: octanol/water.

Compound `COC(=O)C1=C(CN2CC(F)(F)C[C@H]2C(=O)O)NC(c2nccs2)=N[C@@]1(C)c1ccc(F)cc1` displayed a logD of 0.25.
